Laboratory results published in patent US20220332829A1.
These are yes or no findings as the source states them, for the method shown. A result given as binding can be weak or reduced; the word gives no strength. Each block holds one binder with its values, some of them ahead of it.

Assays:
[1] = biological target: Cynomolgus B7-H3-His (Sino Biological, Cat. No. 90806-C08H) (cynomolgus monkey); experiment: ELISA, plate coated with cynomolgus B7-H3-His
[2] = biological target: Cynomolgus B7-H3-His (Sino Biological, Cat. No. 90806-C08H) (cynomolgus monkey); experiment: ELISA, plate coated with cynomolgus B7-H3-His, detection with anti-human IgG HRP, OD450

binding [1]: binds
B1: hu65-13 (antibody, human IgG1, V domains shown)
VH: EVQLVESGGGLVQPGGSLRLSCAASGFTFSDYGIHWVRQAPGKGLEWVSYISSGSNTIYYADTVKGRFTISRDNAKNSLYLQMNSLRAEDTAVYYCATMVTRWFYYAMDYWGQGTTVTVSS
VL: EIVLTQSPATLSLSPGERATLSCSASSSVSYMYWYQQKPGQAPRRLIYDTSKLASGVPARFSGSGSGTDYTLTISSLEPEDFAVYYCQQWSSNPPTFGQGTKLEIK

binding [2]: binds | binding [1]: binds
B2: hu51-G34K-12 (antibody, human IgG1, V domains shown)
VH: EVQLVESGGGLVKPGGSLRLSCAASGFTFSSFGMSWVRQAPGKGLEWVATINSGDNYSYSPDSVKGRFTISRDNAKNSLYLQMNSLRAEDTAVYYCARPHIFYYGSPAWFAYWGQGTLVTVSS
VL: DVVMTQSPLSLPVTLGQPASISCRSRQSLVHSNKNTYLHWFQQRPGQSPRLLIYKVSNRFSGVPDRFSGSGSGTDFTLKISRVEAEDVGVYYCSQSTHVPLTFGGGTKVEIK
